We go through two molecules from patent US20230091105A1 (NORTHWESTERN UNIVERSITY, published 2023).

Sequences of proteins named here, by UniProt entry; tags and fusion partners are left off. A change or cut given only in a name is not applied to a line headed by its entry. Residues count along the entry.
UniProt Q02763: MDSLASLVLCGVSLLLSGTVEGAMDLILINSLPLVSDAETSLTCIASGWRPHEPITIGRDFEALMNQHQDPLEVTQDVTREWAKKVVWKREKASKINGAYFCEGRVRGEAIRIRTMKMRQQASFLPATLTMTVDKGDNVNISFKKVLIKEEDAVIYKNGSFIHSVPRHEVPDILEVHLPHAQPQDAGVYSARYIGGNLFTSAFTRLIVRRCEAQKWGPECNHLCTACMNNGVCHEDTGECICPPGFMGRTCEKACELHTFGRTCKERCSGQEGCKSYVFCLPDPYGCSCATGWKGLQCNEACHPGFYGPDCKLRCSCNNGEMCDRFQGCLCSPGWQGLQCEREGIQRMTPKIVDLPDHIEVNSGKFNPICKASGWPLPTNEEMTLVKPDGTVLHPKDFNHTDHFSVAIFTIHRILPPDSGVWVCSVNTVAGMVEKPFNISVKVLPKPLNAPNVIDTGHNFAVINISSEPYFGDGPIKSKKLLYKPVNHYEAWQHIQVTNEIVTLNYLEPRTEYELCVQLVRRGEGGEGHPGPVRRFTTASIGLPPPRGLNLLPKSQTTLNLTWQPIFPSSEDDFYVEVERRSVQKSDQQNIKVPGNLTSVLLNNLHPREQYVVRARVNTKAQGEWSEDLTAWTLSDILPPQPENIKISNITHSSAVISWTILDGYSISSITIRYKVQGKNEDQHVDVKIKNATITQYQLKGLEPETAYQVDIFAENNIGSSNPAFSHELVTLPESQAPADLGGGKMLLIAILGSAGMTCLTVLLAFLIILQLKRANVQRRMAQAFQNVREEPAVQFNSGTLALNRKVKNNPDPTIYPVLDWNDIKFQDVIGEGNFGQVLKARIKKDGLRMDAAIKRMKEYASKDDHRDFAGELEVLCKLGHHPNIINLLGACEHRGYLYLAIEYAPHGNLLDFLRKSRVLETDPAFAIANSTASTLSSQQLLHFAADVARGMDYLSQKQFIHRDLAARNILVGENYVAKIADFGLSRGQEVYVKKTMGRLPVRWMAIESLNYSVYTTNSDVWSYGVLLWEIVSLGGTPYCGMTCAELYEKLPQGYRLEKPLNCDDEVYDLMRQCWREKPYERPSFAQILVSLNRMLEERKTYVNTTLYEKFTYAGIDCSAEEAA
Tie2-Fc: residues 23-748 of Q02763

Results are given in words; binding and its absence hold for the method and conditions named. Binding seen in cells or lysates may run through a third protein. Some entries that bind do so weakly or less than the wild type.

One assay has as its target Tie2 receptor on HUVEC (human, UniProt Q02763 23-1124). The assay is described as follows: summary sentence of Example 3 (co-IP and HUVEC activation).
The next assay deals with Tie2-Fc (UniProt Q02763). Nature of the assay: co-immunoprecipitation: anti-Fc IP of Tie2-Fc, anti-His blot.

B1: ANG1-C4BP (designed binder, not shown: small tags and cut ends)
chain: KPFRDCADVYQAGFNKSGIYTIYINNMPEPKKVFCNMDVNGGGWTVIQHREDGSLDFQRGWKEYKMGFGNPSGEYWLGNEFIFAITSQRQYMLRIELMDWEGNRAYSQYDRFHIGNEKQNYRLYLKGHTGTAGKQSSLILHGADFSTKDADNDNCMCKCALMLTGGWWFDACGPSNLNGMFYTAGQNHGKLNGIKWHYFKGPSYSLRSTTMMIRPLDFGGGGSETPEGCEQVLTGKRLMQCLPNPEDVKMALEVYKLSLEIEQLELQRDSARQSTLDKEL
For B1, the binding entry with Tie2 receptor on HUVEC and in the assay with Tie2-Fc was “binds” throughout.

B2: C4BP-ANG1 (designed binder, not shown: small tags and cut ends)
chain: ETPEGCEQVLTGKRLMQCLPNPEDVKMALEVYKLSLEIEQLELQRDSARQSTLDKELGGGGSKPFRDCADVYQAGFNKSGIYTIYINNMPEPKKVFCNMDVNGGGWTVIQHREDGSLDFQRGWKEYKMGFGNPSGEYWLGNEFIFAITSQRQYMLRIELMDWEGNRAYSQYDRFHIGNEKQNYRLYLKGHTGTAGKQSSLILHGADFSTKDADNDNCMCKCALMLTGGWWFDACGPSNLNGMFYTAGQNHGKLNGIKWHYFKGPSYSLRSTTMMIRPLDF
notes: Heptamer through disulfide-bridged C4BP segment; also called C4BP-ANG1 chimeric fusion protein
Turning to B2, in the assay with Tie2-Fc, the binding result is “binds”.
